The test addresses bovine α1 NC1 monomer (collagen IV α1-chain NC1 domain from bovine lens basement membrane) (bovine) (UniProt Q7SIB2). Description: condition: only Cl−-free buffer (25 mM Tris acetate pH 7.5, 150 mM sodium acetate); SEC; Superdex 200 Increase 10/300 GL, Cl−-free buffer: 25 mM Tris acetate pH 7.5, 150 mM sodium acetate (TNA), 0.5 ml/min; both purified.

Protein sequences, listed by entry. Tags and fused reporters are not part of them. Residues count along the entry.
UniProt Q7SIB2, residues 1441-1669: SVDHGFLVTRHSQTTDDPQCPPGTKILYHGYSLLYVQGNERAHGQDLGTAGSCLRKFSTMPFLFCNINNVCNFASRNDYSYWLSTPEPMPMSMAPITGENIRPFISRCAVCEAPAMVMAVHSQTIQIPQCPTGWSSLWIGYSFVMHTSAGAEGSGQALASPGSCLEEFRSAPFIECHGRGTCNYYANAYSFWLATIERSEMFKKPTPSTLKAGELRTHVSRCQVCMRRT

We go through one molecule from PMC6527180, “A chloride ring is an ancient evolutionary innovation mediating the assembly of the collagen IV scaffold of basement membranes” (The Journal of Biological Chemistry, 2019).

Results are given in words; binding and its absence hold for the method and conditions named.

B1: bovine α2 NC1 monomer (collagen IV α2-chain NC1 domain from bovine lens basement membrane) (domain or fragment)
chain: ISIGYLLVKHSQTDQEPMCPVGMNKLWSGYSLLYFEGQEKAHNQDLGLAGSCLARFSTMPFLYCNPGDVCYYASRNDKSYWLSTTAPLPMMPVAEEDIRPYISRCSVCEAPAVAIAVHSQDVSIPHCPAGWRSLWIGYSFLMHTAAGDEGGGQSLVSPGSCLEDFRATPFIECNGARGTCHYYANKYSFWLTTIPEQSFQGTPSADTLKAGLIRTHISRCQVCMKNL
notes: collagen IV α2-chain NC1 domain, bovine, monomer from tissue-extracted NC1 hexamer; Used as a mixture with the α1 NC1 monomer; also called tissue-derived α2 NC1 monomer; NC1 monomers; source: purified from bovine lens basement membrane
In the case of B1, the binding result is “no binding”.
